Data from PubChem BioAssay AID493014 (National Center for Advancing Translational Sciences (NCATS), 2011).
This is one part of the list. Further columns of the screen follow, without active or inactive calls. The list favours compounds with an active or inconclusive main result. Words in brackets tell the shape of the fitted curve; partial curves, single points and poor fits give uncertain potencies.

Assay: qHTS Assay to Find Inhibitors of Chronic Active B-Cell Receptor Signaling
Conditions: ABC-DLBCL IkBa-CBG/CBR reporter, luminescence ratio (green luciferase fused to IkBa over red control in TMD8 lymphoma cells), 4 h
Method in brief: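 TMD8 human ABC-DLBCL cells with doxycycline-inducible IκBα–green luciferase fusion and unfused red luciferase, in 0.5% FBS medium; compounds up to 46 uM, 4 h at 37C. Green/red luminescence ratio, filter-overlap corrected, fitted to concentration-response curves.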

[1] = measured here: CBR red luminescence, cell number
[2] = measured here: IkBa-CBG green luminescence

SMILES	AC50 [1]	AC50 [2]
Cc1ccccc1NS(=O)(=O)c1ccc(C(=O)NNC(=O)c2ccccc2O)cc1	23.1 µM [falling, single point]	–
COc1ccc(S(=O)(=O)N2CCN(Cc3ccc4c(c3)OCO4)CC2)cc1C	1 µM [falling, full curve, poor fit]	–
NC(=O)c1ccc(Sc2nnc(-c3cccs3)n2CC2CCCO2)c([N+](=O)[O-])c1 (stereo not drawn)	18.4 µM [falling, partial curve, poor fit]	–
CCN(C(=O)c1ccc(Cl)c([N+](=O)[O-])c1)c1ccccc1	6.31 µM [rising, single point]	–
O=C(c1ccc2ncsc2c1)N1CCCCC1	35.5 µM [falling, partial curve, poor fit]	–
COc1nc(Nc2ccc(OC)c(Cl)c2)nc(OC)n1	32.6 µM [falling, single point]	–
COC(=O)c1c(-c2ccc(OC)cc2)sc2cc(OC)c(OC)cc12	11.6 µM [rising, partial curve, poor fit]	–
Fc1ccccc1NC(=S)NCc1ccc2c(c1)OCO2	29.1 µM [rising, single point]	–
O=S(=O)(NCCc1ccc(Cl)cc1)c1cccs1	17.8 µM [falling, partial curve, poor fit]	–
O=C(CSc1nc2ccccc2c(=O)n1-c1ccccc1Cl)Nc1cccc(S(=O)(=O)N2CCOCC2)c1	1.84 µM [rising, full curve]	–
O=C1C=C(Nc2ccc(O)cc2)CC(c2ccco2)C1 (stereo not drawn)	9.2 µM [falling, partial curve, poor fit]	–
Cn1cc(Cl)c(C(=O)Nc2nc3ccccc3s2)n1	1.64 µM [falling, partial curve]	–
O=c1[nH]c2ccc(S(=O)(=O)N3CCN(c4ccc(F)cc4)CC3)cc2o1	5.62 µM [rising, single point]	–
Cc1ccc(Cl)cc1NC(=S)N(Cc1cccnc1)Cc1ccccc1Cl	12.6 µM [falling, partial curve, poor fit]	–
Cc1cccc(C)c1OCC(=O)NNC(=O)Nc1ccc(Cl)cc1	14.6 µM [rising, partial curve, poor fit]	–
COC(=O)c1cc(OC)c(OC)cc1NC(=O)c1ccc(OC)c(OC)c1	0.58 µM [rising, full curve]	–
C/C(=N\NC(N)=S)c1ccc(Cl)s1	8.2 µM [rising, partial curve]	18.4 µM [falling, single point]
CN(CC(=O)Nc1ccc(F)cc1)C(=O)COC(=O)C1CCN(c2ccc(C(F)(F)F)cn2)CC1	29.1 µM [falling, single point]	–
Cn1c(SCC(=O)Nc2cc(=O)n(C)c(=O)n2C)nnc1-c1cccs1	10.3 µM [falling, partial curve, poor fit]	–
Cc1ccc(-n2ncc3c(=O)n(-c4ccc(C)c(C)c4)c(C)nc32)cc1	29.1 µM [rising, partial curve, poor fit]	–
CCc1ccc(OCCSc2nc3ccccc3n2CCC(=O)O)cc1	5.01 µM [falling, full curve]	–

SMILES	AC50 [1]	AC50 [2]
O=C(Nc1nccs1)c1ccc(-c2ccc(F)c(Cl)c2)o1	7.94 µM [falling, partial curve, poor fit]	–
CCOC(=O)c1cnc2c(c(C3CC3)nn2C)c1N1CCOCC1	6.31 µM [rising, single point]	–
CC(C)(C)c1nnc(NC(=O)C2c3ccccc3Oc3ccccc32)s1	3.16 µM [falling, full curve]	–
O=C(Nc1nccs1)c1csc2c1CCCC2	4.61 µM [falling, full curve]	1.16 µM [rising, partial curve, poor fit]
CCc1nc2ccc(C(=O)Nc3ccc4c(c3)OCO4)cc2nc1CC	7.08 µM [falling, full curve, poor fit]	–
Fc1ccc(COc2ccc3ccccc3c2CNc2nn[nH]n2)cc1	12.6 µM [rising, partial curve, poor fit]	–
O=C(/C=C/c1ccco1)Nc1cccc(NC(=O)/C=C/c2ccco2)n1	20.6 µM [falling, partial curve]	–
Cc1ccc(S(=O)(=O)NCC(=O)OCC(=O)NC(=O)NC2CCCC2)cc1	3.16 µM [rising, full curve, poor fit]	–
Nc1nn(-c2ccccc2)c2ccc([N+](=O)[O-])cc12	8.91 µM [falling, partial curve]	–
CCCCCCn1c(=O)c(-c2ccccc2)c(O)c2ccccc21	23.1 µM [falling, partial curve, poor fit]	–
CN(C(=O)/C=C/c1ccc2c(c1)OCO2)c1ccccc1	20 µM [falling, single point]	–
CSc1ccccc1NC(=O)c1cc2c(=O)n3ccccc3nc2s1	1.12 µM [falling, full curve]	–
Cc1cnc(C(=O)OCC(=O)Nc2ccc(OCc3ccccc3)cc2)cn1	2.59 µM [rising, full curve, poor fit]	–
COc1cc2c(cc1OC)CN(C(=O)Cc1ccccc1)CC2	14.1 µM [falling, partial curve, poor fit]	–
Cc1cc(N/N=C/c2cccc(Br)c2)nc2ccccc12	2.59 µM [rising, full curve]	–
CN(c1ccccc1)S(=O)(=O)c1cccc(NC(=O)CCNC(=O)c2ccc(Cl)cc2)c1	18.4 µM [falling, single point]	–
C[C@]12c3[nH]c4ccc(Cl)cc4c3CCN1C(=O)[C@@H](CC(=O)NCc1cccc(C(F)(F)F)c1)C[C@@H]2C(=O)N1CCOCC1	29.1 µM [falling, single point]	–
C(=C\CSc1ncn[nH]1)/CSc1ncn[nH]1	25.9 µM [rising, single point]	–
COc1ccc2nc(N3C(=O)CC(Cc4cc(C)cc(C)c4)C3=O)sc2c1 (stereo not drawn)	35.5 µM [falling, single point]	–
Nc1cccc2c1C(=O)N(C(=O)c1cccc(S(=O)(=O)N3CCCC3)c1)C2=O	2.59 µM [falling, full curve]	–
